These are yes or no findings as the source states them, for the method shown. Some entries that bind do so weakly or less than the wild type. For some of these results: Tags and fused reporters may be left off the sequences shown.

Chains of the proteins cited; added tags and fusions are not shown.
UniProt P0AGE0: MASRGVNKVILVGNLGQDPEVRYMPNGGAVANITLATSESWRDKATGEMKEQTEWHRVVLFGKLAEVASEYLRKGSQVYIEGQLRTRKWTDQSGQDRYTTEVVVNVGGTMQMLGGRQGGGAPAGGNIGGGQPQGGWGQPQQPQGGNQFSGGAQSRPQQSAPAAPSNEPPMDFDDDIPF
UniProt P28905: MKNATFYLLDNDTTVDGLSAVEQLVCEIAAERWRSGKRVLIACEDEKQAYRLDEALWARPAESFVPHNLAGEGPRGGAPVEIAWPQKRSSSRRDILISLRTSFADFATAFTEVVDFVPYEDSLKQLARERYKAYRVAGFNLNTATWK

Two molecules from PMC13213242, “A novel ψ–χ fusion protein for unravelling the contributions of χ to DNA replication and repair” (Nucleic Acids Research, 2026) can be followed below.

Test in all cases: two-hybrid; Matchmaker GAL4 Two-Hybrid System 3; GAL4 BD and AD fusions in both orientations; growth on −HIS plates (HIS3 reporter), 30°C, 2–3 days
For assay [1], the target named is single-stranded DNA-binding protein (SSB), two-hybrid fusion (E. coli) (UniProt P0AGE0).
Assay [2] concerns the target T1, YoaA (WT), two-hybrid fusion (E. coli) (UniProt P76257).
T1 sequence: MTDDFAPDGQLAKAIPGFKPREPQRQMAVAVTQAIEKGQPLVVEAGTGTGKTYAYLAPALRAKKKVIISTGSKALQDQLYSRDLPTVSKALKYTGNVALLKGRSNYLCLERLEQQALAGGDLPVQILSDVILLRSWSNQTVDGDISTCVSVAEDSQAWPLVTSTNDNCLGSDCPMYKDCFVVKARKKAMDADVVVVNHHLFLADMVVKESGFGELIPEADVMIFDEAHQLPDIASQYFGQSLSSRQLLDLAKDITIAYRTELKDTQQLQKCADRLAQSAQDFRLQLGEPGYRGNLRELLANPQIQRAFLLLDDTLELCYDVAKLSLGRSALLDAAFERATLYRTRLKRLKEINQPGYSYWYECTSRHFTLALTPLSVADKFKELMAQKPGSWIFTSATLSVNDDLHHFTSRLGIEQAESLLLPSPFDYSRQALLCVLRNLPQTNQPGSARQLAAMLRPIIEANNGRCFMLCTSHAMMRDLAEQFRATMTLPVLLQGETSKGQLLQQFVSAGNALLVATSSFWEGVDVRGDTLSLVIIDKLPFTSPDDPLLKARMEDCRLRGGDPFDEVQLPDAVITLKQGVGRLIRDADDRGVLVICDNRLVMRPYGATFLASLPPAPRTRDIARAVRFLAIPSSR

For assay [3], the target named is T2, YoaA_T620A, two-hybrid fusion (E. coli) (UniProt P76257).
T2 sequence: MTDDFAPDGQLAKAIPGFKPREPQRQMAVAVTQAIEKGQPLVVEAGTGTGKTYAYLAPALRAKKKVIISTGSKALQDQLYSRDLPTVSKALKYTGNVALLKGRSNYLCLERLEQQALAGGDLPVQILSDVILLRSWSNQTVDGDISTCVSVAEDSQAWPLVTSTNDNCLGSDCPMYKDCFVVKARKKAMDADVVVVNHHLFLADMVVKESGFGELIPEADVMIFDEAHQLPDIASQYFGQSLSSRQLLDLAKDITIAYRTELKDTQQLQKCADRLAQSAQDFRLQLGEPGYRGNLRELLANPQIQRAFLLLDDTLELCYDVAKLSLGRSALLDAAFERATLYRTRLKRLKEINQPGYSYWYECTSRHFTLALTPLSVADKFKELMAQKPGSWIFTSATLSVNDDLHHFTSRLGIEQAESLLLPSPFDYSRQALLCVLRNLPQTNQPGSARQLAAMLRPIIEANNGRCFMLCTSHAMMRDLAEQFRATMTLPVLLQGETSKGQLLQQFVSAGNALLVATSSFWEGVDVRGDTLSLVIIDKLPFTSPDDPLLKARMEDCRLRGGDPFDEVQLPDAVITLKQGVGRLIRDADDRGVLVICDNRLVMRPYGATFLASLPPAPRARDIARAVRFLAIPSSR

Assay [4] deals with χ (HolC), two-hybrid fusion (E. coli) (UniProt P28905).

Consider “χ (HolC), two-hybrid fusion (from UniProt P28905 1-147)”, for which the binding result in assay [1] was “binds”; in assay [2], “binds”; in assay [3], “no binding”.

B1: YoaA_T620A, two-hybrid fusion (enzyme, UniProt P76257 1-636)
chain: MTDDFAPDGQLAKAIPGFKPREPQRQMAVAVTQAIEKGQPLVVEAGTGTGKTYAYLAPALRAKKKVIISTGSKALQDQLYSRDLPTVSKALKYTGNVALLKGRSNYLCLERLEQQALAGGDLPVQILSDVILLRSWSNQTVDGDISTCVSVAEDSQAWPLVTSTNDNCLGSDCPMYKDCFVVKARKKAMDADVVVVNHHLFLADMVVKESGFGELIPEADVMIFDEAHQLPDIASQYFGQSLSSRQLLDLAKDITIAYRTELKDTQQLQKCADRLAQSAQDFRLQLGEPGYRGNLRELLANPQIQRAFLLLDDTLELCYDVAKLSLGRSALLDAAFERATLYRTRLKRLKEINQPGYSYWYECTSRHFTLALTPLSVADKFKELMAQKPGSWIFTSATLSVNDDLHHFTSRLGIEQAESLLLPSPFDYSRQALLCVLRNLPQTNQPGSARQLAAMLRPIIEANNGRCFMLCTSHAMMRDLAEQFRATMTLPVLLQGETSKGQLLQQFVSAGNALLVATSSFWEGVDVRGDTLSLVIIDKLPFTSPDDPLLKARMEDCRLRGGDPFDEVQLPDAVITLKQGVGRLIRDADDRGVLVICDNRLVMRPYGATFLASLPPAPRARDIARAVRFLAIPSSR
In the case of B1, the binding entry in assay [4] is “no binding”.
